Results on four molecules are retold here after publication doi:10.1101/2023.12.15.571360.

Protein sequences, listed by entry. Tags and fused reporters are not part of them.
UniProt P63104: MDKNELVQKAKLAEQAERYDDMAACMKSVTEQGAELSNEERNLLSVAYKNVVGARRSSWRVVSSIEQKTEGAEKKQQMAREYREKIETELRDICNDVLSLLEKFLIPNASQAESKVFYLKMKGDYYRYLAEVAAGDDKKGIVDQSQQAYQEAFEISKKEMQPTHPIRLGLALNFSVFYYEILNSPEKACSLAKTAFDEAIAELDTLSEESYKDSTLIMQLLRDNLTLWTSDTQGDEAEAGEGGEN

These are yes or no findings as the source states them, for the method shown. In cells and extracts the contact can be indirect. Here binding means that the protein was enriched with, or labelled near, the bait; the list need not be complete.

This assay addresses GST-14-3-3ζ (UniProt P63104). Put plainly: affinity purification with mass spectrometry.

B1: Agfg1 (protein, UniProt Q8K2K6 1-561)
chain: MAASAKRKQEEKHLKMLRDMTGLPHNRKCFDCDQRGPTYVNMTVGSFVCTSCSGSLRGLNPPHRVKSISMTTFTQQEIEFLQKHGNEVCKQIWLGLFDDRSSAIPDFRDPQKVKEFLQEKYEKKRWYVPPEQAKVVASVHASISGSSASSTSSTPEVKPLKSLLGESAPALHLNKGTPSQSPVVGRSQGQQQEKKQFDLLSDLGSDIFAAPAPQSTATANFANFAHFNSHAAQNSANADFANFDAFGQSSGSSNFGGFPTASHSSFQPQTTGGSAGSVNANFAHFDNFPKSSSADFGTFSTSQSHQTASTVSKVSTNKAGLQTADKYAALANLDNIFSAGQGGDQGSGFGTTGKAPVGSVVSVPSHSSASSDKYAALAELDSVFSSAATSSNAYTPTSNASSSVFGTVPVGASAQTQPASSGPAPFGATPSTNPFVAATGPSAASSTNPFQTNARGATAATFGTASMSMPAGFGTPAQYSLPTSFSGSFQQPAFPAQAAFPQQTAFSQQPNGAGFATFGQTKPVVTPFGQVAAAGVSSNPFMTGAPTGQLPTGSSSTNPFL
modifications: phosphorylated; sites not shown (Supplementary Table 2)
Consider B1, for which the binding result is given as “binds”.

B2: Bcr (protein, UniProt Q6PAJ1 1-1270)
chain: MVDSVGFAEAWRAQFPDSEPPRMELRSVGDIEQELERCKASIRRLEQEVNQERFRMIYLQTLLAKEKKSYDRQRWGFRRAAQPPDGAAEPRASAPRPPPAPADGADPAPVEESEARPDGEGSPSKGRSASARRPAAAASADRDDRGPPTSVAALRSNFEKIRKGPAQPGSADAEKPFYVNVEFHHERGLVKVNDKEVSDRISSLGSQAMQMERKKSQQSAGQGLGEAPRPHYRGRSSESSCGLDGDYEDAELNPRFLKDNLINANGGNRPPWPPLEYQPYQSIYVGGMMVEGEGKSPLLRSQSTSEQEKRLTWPRRSYSPRSFEDSGGGYTPDCSSNENLTSSEEDFSSGQSSRVSPSPTTYRMFRDKSRSPSQNSQQSFDSSSPPTPQCQKRHRQCQVVVSEATIVGVRKTGQIWPSDGDSTFQGEADSSFGTPPGYGCAADQAEEQRRHQDGLPYIDDSPSSSPHLSSKGRGSLASGALDPTKVSELDLEKGLEMRKWVLSGILASEETYLSHLEALLLPMKPLKAAATTSQPVLTSQQIETIFFKVPELYEIHKEFYDGLFPRVQQWSHQQRVGDLFQKLASQLGVYRAFVDNYGVAMETAEKCCQANAQFAEISENLRARSNKDVKDSTTKNSLETLLYKPVDRVTRSTLVLHDLLKHTPSSHPDHSLLQDALRISQNFLSSINEEITPRRQSMTVKKGEHRQLLKDSFMVELVEGARKLRHIFLFTDLLLCTKLKKQSGGKTQQYDCKWYIPLTDLSFQMVDELEALPNIPLVPDEELDALKIKISQIKSDIQREKRANKGSKVMERLRKKLSEQESLLLLMSPSMAFRVHSRNGKSYTFLISSDYERAEWRESIREQQKKCFKSFSLTSVELQMLTNSCVKLQTVHHIPLTINKEDDESPGLYGFLHVIVHSATGFKQSSNLYCTLEVDSFGYFVNKAKTRVYRDTTEPNWNEEFEIELEGSQTLRILCYEKCYNKMKMTKEDGESADKLMGKGQVQLDPQTLQDRDWQRTVIDMNGIEVKLSVKFTSREFSLKRMPSRKQTGVFGVKIAVVTKRERSKVPYIVRQCVEEIERRGMEEVGIYRVSGVATDIQALKAAFDVNNKDVSVMMSEMDVNAIAGTLKLYFRELPEPLFTDEFYPNFAEGIALSDPVAKESCMLNLLLSLPEANLLTFLFLLDHLKRVAEKETVNKMSLHNLATVFGPTLLRPSEKESKLPANPSQPITMTDSWSLEVMSQVQVLLYFLQLEAIPAPDSKRQSILFSTEV
modifications: phosphorylated; sites not shown (Table 1, Supplementary Tables 1 and 2)
B2: the binding result is given as “binds”.

B3: Erc2 (protein, UniProt Q6PH08 1-957)
chain: MYGSARTISNLEGSPSRSPRLPRSPRLGHRRTSSGGGGGTGKTLSMENIQSLNAAYATSGPMYLSDHEGVASTTYPKGTMTLGRATNRAVYGGRVTAMGSSPNIASAGLSHTDVLSYTDQHGGLSGSSHHHHHQVPSMLRQVRDSTMLDLQAQLKELQRENDLLRKELDIKDSKLGSSMNSIKTFWSPELKKERVLRKEEAARMSVLKEQMRVSHEENQHLQLTIQALQDELRTQRDLNHLLQQESGNRGAEHFTIELTEENFRRLQAEHDRQAKELFLLRKTLEEMELRIETQKQTLNARDESIKKLLEMLQSKGLPSKSLEDDNERTRRMAEAESQVSHLEVILDQKEKENIHLREELHRRSQLQPEPAKTKALQTVIEMKDTKIASLERNIRDLEDEVQMLKANGVLNTEDREEEIKQIEVYKSHSKFMKTKIDQLKQELSKKESELLALQTKLETLSNQNSDCKQHIEVLKESLTAKEQRAAILQTEVDALRLRLEEKESFLNKKTKQLQDLTEEKGTLAGEIRDMKDMLEVKERKINVLQKKIENLQEQLRDKDKQLTNLKDRVKSLQTDSSNTDTALATLEEALSEKERIIERLKEQRERDDRERLEEIESFRKENKDLKEKVNALQAELTEKESSLIDLKEHASSLASAGLKRDSKLKSLEIAIEQKKEECNKLEAQLKKAHNIEDDSRMNPEFADRLKQLDKEASYYRDECGKAQAEVDRLLEILKEVENEKNDKDKKIAELESLTLRHMKDQNKKVANLKYNQQLEKKKNAQLLEEVRRREDSMVDNSQHLQIEELMNALEKTRQELDATKARLASTQQSLAEKEAHLANLRIERRKQLEEILEMKQEALLAAISEKDANIALLELSASKKKKTQEEVMALKREKDRLVHQLKQQTQNRMKLMADNYDEDHHHYHHHHHHHHHRSPGRSQHSNHRPSPDQDDEEGIWA
modifications: phosphorylated; sites not shown (Supplementary Table 2)
For the molecule B3, the binding result is reported as “binds”.

B4: Erc1 (protein, UniProt Q99MI1 1-1120)
chain: MYGSARSVGKVEPSSQSPGRSPRLPRSPRLGHRRTNSTGGSSGNSVGGGSGKTLSMENIQSLNAAYATSGPMYLSDHENVGAETPKSTMTLGRSGGRLPYGVRMTAMGSSPNIASSGVASDTIAFGEHHLPPVSMASTVPHSLRQARDNTIMDLQTQLKEVLRENDLLRKDVEVKESKLSSSMNSIKTFWSPELKKERALRKDEASKITIWKEQYRVVQEENQHMQMTIQALQDELRIQRDLNQLFQQDSSSRTGEPCVAELTEENFQRLHAEHERQAKELFLLRKTLEEMELRIETQKQTLNARDESIKKLLEMLQSKGLSAKATEEDHERTRRLAEAEMHVHHLESLLEQKEKENNMLREEMHRRFENAPDSAKTKALQTVIEMKDSKISSMERGLRDLEEEIQMLKSNGALSSEEREEEMKQMEVYRSHSKFMKNKVEQLKEELSSKDAQGEELKKRAAGLQSEIGQVKQELSRKDTELLALQTKLETLTNQFSDSKQHIEVLKESLTAKEQRAAILQTEVDALRLRLEEKETMLNKKTKQIQDMAEEKGTQAGEIHDLKDMLDVKERKVNVLQKKIENLQEQLRDKEKQMSSLKERVKSLQADTTNTDTALTTLEEALADKERTIERLKEQRDRDEREKQEEIDTYKKDLKDLREKVSLLQGDLSEKEASLLDIKEHASSLASSGLKKDSRLKTLEIALEQKKEECLKMESQLKKAHEATLEARASPEMSDRIQQLEREISRYKDESSKAQTEVDRLLEILKEVENEKNDKDKKIAELESLTSRQVKDQNKKVANLKHKEQVEKKKSAQMLEEARRREDSLSDSSQQLQDSLRKKDDRIEELEEALRESVQITAEREMVLAQEESARTNAEKQVEELLMAMEKVKQELESMKAKLSSTQQSLAEKETHLTNLRAERRKHLEEVLEMKQEALLAAISEKDANIALLELSSSKKKTQEEVAALKREKDRLVQQLKQQTQNRMKLMADNYEDDHFRSSRSNQTNHKPSPDQIIQPLLELDQNRSKLKLYIGHLTALCHDRDPLILRGLTPPASYNADGEQAAWENELQQMTQEQLQNELEKVEGDNAELQEFANTILQQIADHCPDILEQVVNALEESS
modifications: phosphorylated; sites not shown (Supplementary Table 2)
For B4, the binding entry is listed as “binds”.
